# This is one part of the list.
# The chains behind the UniProt entries cited, without tags or fusion partners. Where a name states a change or a piece, a line headed by the entry shows the natural chain unless it says otherwise.
# UniProt P43251: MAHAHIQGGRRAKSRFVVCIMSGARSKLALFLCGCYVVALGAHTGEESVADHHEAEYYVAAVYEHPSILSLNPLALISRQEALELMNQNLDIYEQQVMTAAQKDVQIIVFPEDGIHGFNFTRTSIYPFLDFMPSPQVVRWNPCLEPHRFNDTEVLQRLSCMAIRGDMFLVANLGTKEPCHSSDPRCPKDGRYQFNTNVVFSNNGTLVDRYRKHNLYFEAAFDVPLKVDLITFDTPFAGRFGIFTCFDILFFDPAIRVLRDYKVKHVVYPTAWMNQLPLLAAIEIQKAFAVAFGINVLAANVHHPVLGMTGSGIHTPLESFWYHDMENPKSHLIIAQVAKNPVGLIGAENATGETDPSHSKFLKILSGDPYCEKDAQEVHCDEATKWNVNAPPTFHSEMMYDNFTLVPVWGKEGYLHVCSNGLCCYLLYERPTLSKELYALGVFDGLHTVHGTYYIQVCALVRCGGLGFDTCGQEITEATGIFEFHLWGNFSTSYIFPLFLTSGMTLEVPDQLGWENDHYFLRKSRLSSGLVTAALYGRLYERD
# UniProt Q6PGQ7, whole entry, looked up: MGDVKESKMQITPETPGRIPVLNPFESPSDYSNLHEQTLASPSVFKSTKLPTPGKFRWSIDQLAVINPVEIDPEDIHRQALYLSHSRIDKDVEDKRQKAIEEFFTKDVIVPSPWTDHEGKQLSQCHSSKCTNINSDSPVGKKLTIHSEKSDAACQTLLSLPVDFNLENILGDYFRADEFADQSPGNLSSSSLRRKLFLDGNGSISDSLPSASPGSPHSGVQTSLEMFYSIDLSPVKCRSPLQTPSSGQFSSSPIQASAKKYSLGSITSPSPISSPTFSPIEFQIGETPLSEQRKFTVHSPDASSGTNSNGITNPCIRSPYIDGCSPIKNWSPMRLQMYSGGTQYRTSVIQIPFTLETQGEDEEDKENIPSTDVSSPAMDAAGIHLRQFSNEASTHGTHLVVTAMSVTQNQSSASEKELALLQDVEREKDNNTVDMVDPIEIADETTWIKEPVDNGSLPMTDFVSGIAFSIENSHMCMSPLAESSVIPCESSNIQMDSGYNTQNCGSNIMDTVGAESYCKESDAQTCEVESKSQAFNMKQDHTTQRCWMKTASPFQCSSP
# UniProt Q8IWZ6: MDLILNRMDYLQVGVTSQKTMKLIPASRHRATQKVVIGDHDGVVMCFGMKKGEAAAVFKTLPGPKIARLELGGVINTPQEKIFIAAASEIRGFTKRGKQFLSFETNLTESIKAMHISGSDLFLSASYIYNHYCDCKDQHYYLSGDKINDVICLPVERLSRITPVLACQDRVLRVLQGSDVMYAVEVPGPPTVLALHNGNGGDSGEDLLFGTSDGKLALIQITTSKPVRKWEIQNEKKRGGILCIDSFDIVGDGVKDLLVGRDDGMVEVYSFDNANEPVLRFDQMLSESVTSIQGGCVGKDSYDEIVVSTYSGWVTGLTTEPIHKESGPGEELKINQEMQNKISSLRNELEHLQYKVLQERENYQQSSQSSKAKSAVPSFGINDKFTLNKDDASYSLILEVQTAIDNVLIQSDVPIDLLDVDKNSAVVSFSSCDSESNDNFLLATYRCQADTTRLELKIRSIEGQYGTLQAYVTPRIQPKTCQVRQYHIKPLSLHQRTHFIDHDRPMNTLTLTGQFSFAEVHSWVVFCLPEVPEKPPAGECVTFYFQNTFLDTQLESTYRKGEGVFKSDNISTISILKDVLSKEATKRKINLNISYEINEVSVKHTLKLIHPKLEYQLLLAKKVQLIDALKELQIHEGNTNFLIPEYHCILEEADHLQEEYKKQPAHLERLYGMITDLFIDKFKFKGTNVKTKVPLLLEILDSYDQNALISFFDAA
# UniProt O14867: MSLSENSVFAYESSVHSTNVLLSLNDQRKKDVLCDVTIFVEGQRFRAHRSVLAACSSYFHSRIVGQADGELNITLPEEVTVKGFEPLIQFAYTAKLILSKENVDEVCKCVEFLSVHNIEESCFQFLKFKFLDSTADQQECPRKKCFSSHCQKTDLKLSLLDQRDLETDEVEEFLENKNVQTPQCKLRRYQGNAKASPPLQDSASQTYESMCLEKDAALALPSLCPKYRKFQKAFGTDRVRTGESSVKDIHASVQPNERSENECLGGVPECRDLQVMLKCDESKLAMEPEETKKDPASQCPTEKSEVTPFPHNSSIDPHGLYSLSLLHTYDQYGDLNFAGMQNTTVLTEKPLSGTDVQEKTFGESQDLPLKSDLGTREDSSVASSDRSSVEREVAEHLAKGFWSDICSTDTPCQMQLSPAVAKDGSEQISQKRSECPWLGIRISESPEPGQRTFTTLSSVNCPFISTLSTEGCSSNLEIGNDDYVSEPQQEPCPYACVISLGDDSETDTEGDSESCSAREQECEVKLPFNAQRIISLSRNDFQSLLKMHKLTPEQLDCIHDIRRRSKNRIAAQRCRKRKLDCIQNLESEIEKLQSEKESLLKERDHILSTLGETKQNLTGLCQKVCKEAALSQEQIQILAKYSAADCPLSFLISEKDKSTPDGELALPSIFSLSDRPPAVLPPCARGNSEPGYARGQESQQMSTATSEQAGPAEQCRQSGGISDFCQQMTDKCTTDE
# UniProt P53004: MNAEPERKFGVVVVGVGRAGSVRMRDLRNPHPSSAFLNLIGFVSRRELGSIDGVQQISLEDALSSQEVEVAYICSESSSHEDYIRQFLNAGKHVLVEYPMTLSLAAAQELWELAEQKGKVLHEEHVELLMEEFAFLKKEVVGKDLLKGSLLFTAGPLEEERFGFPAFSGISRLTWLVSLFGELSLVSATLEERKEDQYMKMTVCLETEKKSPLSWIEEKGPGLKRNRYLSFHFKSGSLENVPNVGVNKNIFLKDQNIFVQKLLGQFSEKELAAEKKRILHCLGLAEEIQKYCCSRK
# UniProt Q9P281: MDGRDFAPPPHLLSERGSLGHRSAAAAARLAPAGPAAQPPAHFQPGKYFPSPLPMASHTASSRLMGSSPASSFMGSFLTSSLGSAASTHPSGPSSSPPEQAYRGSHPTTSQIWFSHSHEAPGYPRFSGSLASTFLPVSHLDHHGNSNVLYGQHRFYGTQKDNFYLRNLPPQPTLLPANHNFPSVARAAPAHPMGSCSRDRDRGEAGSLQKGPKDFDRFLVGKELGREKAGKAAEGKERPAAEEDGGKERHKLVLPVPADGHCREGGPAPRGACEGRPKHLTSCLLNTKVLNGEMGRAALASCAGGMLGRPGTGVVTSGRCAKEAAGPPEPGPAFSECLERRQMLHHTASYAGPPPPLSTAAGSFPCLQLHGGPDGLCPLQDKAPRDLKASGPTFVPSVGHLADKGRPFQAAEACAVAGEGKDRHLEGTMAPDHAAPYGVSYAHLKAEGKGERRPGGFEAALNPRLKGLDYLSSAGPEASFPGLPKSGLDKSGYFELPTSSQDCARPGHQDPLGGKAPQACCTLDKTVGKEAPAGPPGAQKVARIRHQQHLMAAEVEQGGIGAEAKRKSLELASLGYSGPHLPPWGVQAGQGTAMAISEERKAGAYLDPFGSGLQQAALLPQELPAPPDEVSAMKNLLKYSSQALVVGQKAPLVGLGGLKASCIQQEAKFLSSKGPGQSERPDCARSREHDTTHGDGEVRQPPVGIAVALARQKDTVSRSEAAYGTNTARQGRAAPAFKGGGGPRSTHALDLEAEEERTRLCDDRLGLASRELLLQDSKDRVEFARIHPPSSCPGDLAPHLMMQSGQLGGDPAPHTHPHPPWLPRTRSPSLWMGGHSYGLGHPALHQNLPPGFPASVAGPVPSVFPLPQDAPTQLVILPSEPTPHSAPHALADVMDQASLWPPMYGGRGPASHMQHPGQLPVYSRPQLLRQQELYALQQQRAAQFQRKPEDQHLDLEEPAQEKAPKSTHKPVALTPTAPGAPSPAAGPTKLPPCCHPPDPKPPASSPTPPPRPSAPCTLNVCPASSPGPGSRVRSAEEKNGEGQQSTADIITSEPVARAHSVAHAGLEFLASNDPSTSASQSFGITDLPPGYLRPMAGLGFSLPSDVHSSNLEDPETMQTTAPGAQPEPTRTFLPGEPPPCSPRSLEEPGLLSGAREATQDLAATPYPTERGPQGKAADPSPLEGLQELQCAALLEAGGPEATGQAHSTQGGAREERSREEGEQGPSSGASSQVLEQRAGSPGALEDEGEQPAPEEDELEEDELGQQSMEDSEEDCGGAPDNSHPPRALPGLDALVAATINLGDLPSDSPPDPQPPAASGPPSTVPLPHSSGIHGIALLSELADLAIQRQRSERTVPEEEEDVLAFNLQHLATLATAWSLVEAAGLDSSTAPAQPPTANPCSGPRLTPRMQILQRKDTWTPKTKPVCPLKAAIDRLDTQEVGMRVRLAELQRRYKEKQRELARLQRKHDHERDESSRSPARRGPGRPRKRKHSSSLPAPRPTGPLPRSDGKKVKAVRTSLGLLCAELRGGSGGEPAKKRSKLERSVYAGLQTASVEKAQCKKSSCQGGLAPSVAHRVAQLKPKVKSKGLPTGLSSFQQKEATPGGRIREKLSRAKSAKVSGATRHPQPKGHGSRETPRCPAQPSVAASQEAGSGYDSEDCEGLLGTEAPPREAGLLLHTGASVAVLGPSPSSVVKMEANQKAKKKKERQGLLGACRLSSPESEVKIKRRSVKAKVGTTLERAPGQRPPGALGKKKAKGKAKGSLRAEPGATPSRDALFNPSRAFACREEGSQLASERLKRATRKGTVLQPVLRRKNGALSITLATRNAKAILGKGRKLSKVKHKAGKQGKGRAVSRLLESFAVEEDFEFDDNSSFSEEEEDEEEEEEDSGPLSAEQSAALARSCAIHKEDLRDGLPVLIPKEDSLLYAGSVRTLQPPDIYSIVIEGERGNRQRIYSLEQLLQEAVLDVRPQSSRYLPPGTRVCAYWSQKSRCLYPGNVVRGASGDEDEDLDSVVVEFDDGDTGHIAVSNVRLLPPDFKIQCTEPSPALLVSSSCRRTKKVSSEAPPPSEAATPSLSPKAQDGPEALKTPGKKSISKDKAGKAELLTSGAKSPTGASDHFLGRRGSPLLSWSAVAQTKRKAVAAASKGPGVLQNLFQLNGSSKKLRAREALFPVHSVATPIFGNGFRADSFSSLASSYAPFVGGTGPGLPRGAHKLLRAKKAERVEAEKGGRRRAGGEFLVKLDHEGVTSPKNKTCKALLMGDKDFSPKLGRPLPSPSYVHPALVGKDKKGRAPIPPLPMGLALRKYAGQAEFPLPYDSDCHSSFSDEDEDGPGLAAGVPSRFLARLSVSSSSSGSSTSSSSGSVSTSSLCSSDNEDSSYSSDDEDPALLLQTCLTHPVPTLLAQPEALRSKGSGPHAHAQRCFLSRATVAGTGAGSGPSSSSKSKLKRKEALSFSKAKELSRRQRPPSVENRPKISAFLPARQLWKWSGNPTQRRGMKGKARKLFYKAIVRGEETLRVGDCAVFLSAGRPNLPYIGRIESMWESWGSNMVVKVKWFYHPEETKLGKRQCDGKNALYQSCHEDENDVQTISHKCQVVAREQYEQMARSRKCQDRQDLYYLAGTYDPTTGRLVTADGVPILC
# UniProt P25440, whole entry, looked up: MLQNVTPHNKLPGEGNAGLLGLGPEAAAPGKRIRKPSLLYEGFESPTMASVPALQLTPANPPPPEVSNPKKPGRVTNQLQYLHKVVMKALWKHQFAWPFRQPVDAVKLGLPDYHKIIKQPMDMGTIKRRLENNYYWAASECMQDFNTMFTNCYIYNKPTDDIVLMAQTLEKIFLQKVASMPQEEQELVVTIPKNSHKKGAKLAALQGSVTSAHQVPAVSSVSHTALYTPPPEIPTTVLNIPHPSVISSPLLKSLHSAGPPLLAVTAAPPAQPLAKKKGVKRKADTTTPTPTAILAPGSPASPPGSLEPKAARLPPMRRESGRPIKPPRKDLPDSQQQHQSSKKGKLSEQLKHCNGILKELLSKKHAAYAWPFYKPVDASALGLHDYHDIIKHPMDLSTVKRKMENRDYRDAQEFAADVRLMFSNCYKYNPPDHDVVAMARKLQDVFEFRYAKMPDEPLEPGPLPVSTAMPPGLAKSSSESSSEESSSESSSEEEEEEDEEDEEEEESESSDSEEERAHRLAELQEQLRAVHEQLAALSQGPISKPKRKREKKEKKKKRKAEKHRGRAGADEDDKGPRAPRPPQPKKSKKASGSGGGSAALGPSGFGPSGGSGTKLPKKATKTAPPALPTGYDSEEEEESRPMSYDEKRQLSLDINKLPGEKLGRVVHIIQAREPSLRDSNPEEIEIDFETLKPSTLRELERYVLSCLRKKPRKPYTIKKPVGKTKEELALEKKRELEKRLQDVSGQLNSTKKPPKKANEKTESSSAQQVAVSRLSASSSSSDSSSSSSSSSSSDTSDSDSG
# UniProt Q53S33: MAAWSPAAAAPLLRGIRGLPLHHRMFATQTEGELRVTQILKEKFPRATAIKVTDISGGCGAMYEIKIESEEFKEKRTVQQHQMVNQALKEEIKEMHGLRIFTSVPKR
# UniProt Q07812, whole entry, looked up: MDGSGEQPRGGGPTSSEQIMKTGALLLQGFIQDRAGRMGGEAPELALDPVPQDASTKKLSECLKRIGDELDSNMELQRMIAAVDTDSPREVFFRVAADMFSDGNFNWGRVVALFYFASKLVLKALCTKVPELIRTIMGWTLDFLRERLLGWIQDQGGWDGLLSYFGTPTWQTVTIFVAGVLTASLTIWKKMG
# Compound: O=C1NC(=O)C(c2cnc3ccccn23)=C1c1cn2c3c(cc(F)cc13)CN(C(=O)N1CCCCC1)CC2
# Assay: log2 fold change, soluble protein after heating vs DMSO (PISA); higher = thermal stabilisation; K562 lysate, 10 uM; active = over 0.2 and 3.5 SD of the protein, either way, in both replicates (recomputed)
# Procedure, shortened: (§1)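 Values give the log-two fold change in thermal stability against solvent controls, from duplicates. Crude K562 extract at 1 mg/mL protein, made by dounce homogenisation in PBS pH 7.4 with 1 mM MgCl2, was treated with 10 μM compound for 30 min. After 3 min heating across 48°C-58°C, aliquots were pooled, adjusted to 0.5% NP-40 at 4°C and centrifuged at 21,000xg for 90 min. The supernatant was measured by TMTpro 16plex LC-MS/MS with channel sums equalised.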
row,Target,log2 fold change
1,BEND3 (UniProt Q5T5X7),inactive: -0.076
2,BTD isoform 3 (UniProt P43251),inactive: 0.051
3,BCL7C isoform 2 (UniProt Q8WUZ0),inactive: -0.032
4,BRAF (UniProt P15056),inactive: -0.008
5,BORA (UniProt Q6PGQ7),inactive: -0.052
6,BCKDK (UniProt O14874),active: -0.271
7,BARD1 (UniProt Q99728),inactive: 0.061
8,BRAP (UniProt Q7Z569),inactive: -0.005
9,BLM (UniProt P54132),inactive: 0.003
10,BBS7 (UniProt Q8IWZ6),inactive: -0.015
11,BORCS5 (UniProt Q969J3),inactive: 0.026
12,BACH1 (UniProt O14867),inactive: -0.005
13,BLOC1S1 (UniProt P78537),inactive: -0.011
14,BECN1 (UniProt Q14457),inactive: -0.002
15,BCCIP (UniProt Q9P287),inactive: -0.065
16,BOP1 (UniProt Q14137),inactive: 0.022
17,BLVRA (UniProt P53004),inactive: -0.023

row,Target,log2 fold change
1,BAHCC1 (UniProt Q9P281),inactive: -0.158
2,BRD2 isoform 2 (UniProt P25440),inactive: 0.051
3,BRCA2 (UniProt P51587),inactive: 0.038
4,BCL2L13 (UniProt Q9BXK5),inactive: -0.013
5,BRIP1 (UniProt Q9BX63),inactive: -0.051
6,BAZ1B (UniProt Q9UIG0),inactive: -0.125
7,BCL2L12 (UniProt Q9HB09),inactive: -0.085
8,BOLA3 (UniProt Q53S33),inactive: -0.05
9,BCR (UniProt P11274),inactive: 0.001
10,BCL10 (UniProt O95999),inactive: -0.02
11,BABAM2 (UniProt Q9NXR7),inactive: 0.036
12,BAX isoform 2 (UniProt Q07812),inactive: -0.032
13,BRAT1 (UniProt Q6PJG6),inactive: -0.013
14,BSDC1 (UniProt Q9NW68),inactive: 0.024
15,BAG5 isoform 2 (UniProt Q9UL15),inactive: 0.005
16,BPHL (UniProt Q86WA6),inactive: -0.006

# Compound: c1cn2cc(-c3ccc4cn[nH]c4c3)nc(Nc3ccc(N4CCOCC4)cc3)c2n1 [entospletinib]
# Assay: as above
# Procedure, shortened: as §1
row,Target,log2 fold change
1,BEND3 (UniProt Q5T5X7),inactive: 0.072
2,BTD isoform 3 (UniProt P43251),inactive: 0.03
3,BCL7C isoform 2 (UniProt Q8WUZ0),inactive: -0.043
4,BRAF (UniProt P15056),inactive: 0.037
5,BORA (UniProt Q6PGQ7),inactive: -0.112
6,BCKDK (UniProt O14874),inactive: -0.053
7,BARD1 (UniProt Q99728),inactive: -0.13
8,BRAP (UniProt Q7Z569),inactive: 0.015
9,BLM (UniProt P54132),inactive: -0.002
10,BBS7 (UniProt Q8IWZ6),inactive: -0.007
11,BORCS5 (UniProt Q969J3),inactive: -0.115
12,BACH1 (UniProt O14867),inactive: -0.009
13,BLOC1S1 (UniProt P78537),inactive: -0.05
14,BECN1 (UniProt Q14457),inactive: -0.014
15,BCCIP (UniProt Q9P287),inactive: 0.003
16,BOP1 (UniProt Q14137),inactive: -0.015
17,BLVRA (UniProt P53004),inactive: 0.023

row,Target,log2 fold change
1,BAHCC1 (UniProt Q9P281),inactive: -0.069
2,BRD2 isoform 2 (UniProt P25440),inactive: 0.021
3,BRCA2 (UniProt P51587),inactive: -0.01
4,BCL2L13 (UniProt Q9BXK5),inactive: 0.019
5,BRIP1 (UniProt Q9BX63),inactive: -0.038
6,BAZ1B (UniProt Q9UIG0),inactive: -0.018
7,BCL2L12 (UniProt Q9HB09),inactive: -0.129
8,BOLA3 (UniProt Q53S33),inactive: -0.017
9,BCR (UniProt P11274),inactive: -0.009
10,BCL10 (UniProt O95999),inactive: 0.009
11,BABAM2 (UniProt Q9NXR7),inactive: -0.038
12,BAX isoform 2 (UniProt Q07812),inactive: 0.037
13,BRAT1 (UniProt Q6PJG6),inactive: 0.004
14,BSDC1 (UniProt Q9NW68),inactive: -0.002
15,BAG5 isoform 2 (UniProt Q9UL15),inactive: -0.007
16,BPHL (UniProt Q86WA6),inactive: 0.028
